# Percent effect of library compounds

By UniProt entry, the sequences of proteins in these tests, tags left out. Residues count along the entry.
UniProt P9WFT3, whole entry: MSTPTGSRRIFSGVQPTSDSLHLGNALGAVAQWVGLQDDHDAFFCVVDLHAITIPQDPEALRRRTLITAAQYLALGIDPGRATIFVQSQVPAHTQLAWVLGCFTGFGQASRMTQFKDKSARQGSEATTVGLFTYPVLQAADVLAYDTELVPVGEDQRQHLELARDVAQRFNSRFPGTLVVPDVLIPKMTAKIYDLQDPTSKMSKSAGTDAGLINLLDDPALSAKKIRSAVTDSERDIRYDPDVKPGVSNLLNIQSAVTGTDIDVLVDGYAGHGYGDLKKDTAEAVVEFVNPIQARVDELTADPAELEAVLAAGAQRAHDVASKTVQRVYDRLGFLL
UniProt Q8IDJ8, 1-583: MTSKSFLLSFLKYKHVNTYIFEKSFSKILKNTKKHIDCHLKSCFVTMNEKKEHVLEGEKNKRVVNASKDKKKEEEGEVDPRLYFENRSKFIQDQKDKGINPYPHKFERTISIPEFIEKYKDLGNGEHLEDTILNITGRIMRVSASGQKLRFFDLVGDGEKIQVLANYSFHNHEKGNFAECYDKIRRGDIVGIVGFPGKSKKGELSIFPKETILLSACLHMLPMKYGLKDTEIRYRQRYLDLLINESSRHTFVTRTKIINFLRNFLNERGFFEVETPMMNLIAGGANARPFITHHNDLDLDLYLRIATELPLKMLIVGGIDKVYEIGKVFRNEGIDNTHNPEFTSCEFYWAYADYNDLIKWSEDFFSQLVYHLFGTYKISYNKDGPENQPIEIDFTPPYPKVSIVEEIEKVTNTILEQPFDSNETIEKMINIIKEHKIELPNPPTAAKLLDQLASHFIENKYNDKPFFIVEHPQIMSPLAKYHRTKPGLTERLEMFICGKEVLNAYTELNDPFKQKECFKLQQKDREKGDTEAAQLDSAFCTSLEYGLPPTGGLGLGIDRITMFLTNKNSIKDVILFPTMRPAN
UniProt P9WNZ1, whole entry: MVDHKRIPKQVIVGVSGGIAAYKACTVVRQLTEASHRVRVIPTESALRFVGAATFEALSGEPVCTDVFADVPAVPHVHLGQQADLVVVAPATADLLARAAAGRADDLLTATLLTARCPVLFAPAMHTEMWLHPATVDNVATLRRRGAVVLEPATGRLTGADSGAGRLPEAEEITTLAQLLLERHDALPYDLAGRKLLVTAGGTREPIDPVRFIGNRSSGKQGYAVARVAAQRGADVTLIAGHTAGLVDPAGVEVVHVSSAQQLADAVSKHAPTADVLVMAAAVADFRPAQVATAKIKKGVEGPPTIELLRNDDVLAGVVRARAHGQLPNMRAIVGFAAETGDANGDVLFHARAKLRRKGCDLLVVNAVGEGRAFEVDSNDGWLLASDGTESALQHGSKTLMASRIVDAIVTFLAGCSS
UniProt P9WPC5, whole entry: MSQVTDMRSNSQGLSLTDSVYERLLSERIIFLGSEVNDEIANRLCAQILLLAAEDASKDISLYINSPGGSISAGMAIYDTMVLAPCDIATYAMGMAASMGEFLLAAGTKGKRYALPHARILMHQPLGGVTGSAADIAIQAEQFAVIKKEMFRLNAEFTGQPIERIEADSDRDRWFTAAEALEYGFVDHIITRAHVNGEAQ
UniProt P9WPC3, whole entry partner: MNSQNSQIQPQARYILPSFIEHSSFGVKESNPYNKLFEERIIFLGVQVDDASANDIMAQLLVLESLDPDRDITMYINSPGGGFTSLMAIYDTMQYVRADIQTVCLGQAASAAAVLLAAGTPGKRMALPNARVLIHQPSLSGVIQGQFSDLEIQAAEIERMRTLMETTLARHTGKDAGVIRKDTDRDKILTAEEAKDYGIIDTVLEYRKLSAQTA
UniProt Q4DA54, 1-478: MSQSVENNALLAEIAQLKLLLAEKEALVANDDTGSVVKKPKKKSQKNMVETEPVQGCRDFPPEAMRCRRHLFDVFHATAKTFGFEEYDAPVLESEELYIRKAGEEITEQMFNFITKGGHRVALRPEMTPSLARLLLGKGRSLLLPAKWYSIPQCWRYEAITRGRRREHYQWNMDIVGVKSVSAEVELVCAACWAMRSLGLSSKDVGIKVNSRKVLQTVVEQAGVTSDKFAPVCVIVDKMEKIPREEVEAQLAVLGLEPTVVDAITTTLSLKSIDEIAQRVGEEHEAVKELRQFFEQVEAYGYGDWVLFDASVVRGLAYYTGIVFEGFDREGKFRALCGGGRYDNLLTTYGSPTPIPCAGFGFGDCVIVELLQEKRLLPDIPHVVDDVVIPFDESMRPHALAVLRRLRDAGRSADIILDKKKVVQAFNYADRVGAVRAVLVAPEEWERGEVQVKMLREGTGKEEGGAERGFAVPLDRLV

Data taken from ChEMBL document CHEMBL3988442, “University of Dundee, Small-Polar-MMV Screening Library” (2021).

MtTrpRS: 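Enzyme assay of tryptophanyl-tRNA synthetase; the read-out is not stated. Target: Tryptophan-tRNA ligase, Mycobacterium tuberculosis (UniProt P9WFT3). Compounds at 10 µM. Higher most likely means stronger inhibition; the record gives no direction and few retests gave an IC50. Of about 65,000 compounds tested this way, about 64 (0.098%) reached 50% or more in at least one test.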
PfKRS1: 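Enzyme assay of the cytosolic lysyl-tRNA synthetase in 384-well plates, read by luminescence. Target: Lysine-tRNA ligase, Plasmodium falciparum 3D7 (UniProt Q8IDJ8). Tested at 30 µM. Higher reads as stronger inhibition, judged from the few compounds that gave an IC50. Of about 69,000 compounds tested this way, about 49 (0.071%) reached 50% or more in at least one test.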
CoaBC: 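Enzyme assay of CoaBC with a phosphate dye (Biomol Green) read at 650 nm. Target: Coenzyme A biosynthesis protein CoaBC, Mycobacterium tuberculosis (UniProt P9WNZ1). Concentration: 30 µM. Higher reads as stronger inhibition, judged from the few compounds that gave an IC50. Most strong results did not repeat in a second test. About 67,000 compounds were tested under these conditions; 0.06% (about 40) showed 50% or more at least once.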
ClpP1P2: 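ClpP1P2, Mycobacterium tuberculosis (UniProt P9WPC5 and UniProt P9WPC3). Protease assay of ClpP1P2, read by the AMC dye that it sets free. Compounds at 50 µM. Direction is inferred from only a few compounds that gave an IC50; most scored high, so higher reads as stronger inhibition. Most other retested compounds had strongly negative values. About 69,000 compounds were tested under these conditions; 0.015% (about 10) showed 50% or more at least once.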
TcHisRS: 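Enzyme assay of histidyl-tRNA synthetase; the read-out is not stated. Target: Histidine-tRNA ligase, Trypanosoma cruzi CL Brener (UniProt Q4DA54). Concentration: 30 µM. Higher reads as stronger inhibition (inferred: compounds with an IC50 in retests scored well above the rest). Of about 69,000 compounds tested this way, about 31 (0.045%) reached 50% or more in at least one test.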

Results are given as percent effect. The record does not define 0% and 100%; most values in the screen are far below 50% and negative numbers occur (in some assays of this library far below -100). This is an unselected part of the compounds tested. Two or more numbers in one place are separate tests of the same structure; such repeats can differ widely.

* CS(=O)(=O)CCCNCc1c(Cl)cccc1N1CCCC1 | MtTrpRS: 2.925%; PfKRS1: 5.609%; CoaBC: -10.61%; ClpP1P2: -0.3778%; TcHisRS: 4.124%
* c1coc(CN2CCC3(CC2)COC(COCC2CC2)C3)c1 (stereo not given) | MtTrpRS: 12.21%; PfKRS1: -2%; CoaBC: 0.6435%; ClpP1P2: -3.526%; TcHisRS: 0.9709%
* Cc1nn(C)c(C)c1S(=O)(=O)NCCn1ccc(-c2cccs2)n1 | MtTrpRS: -3.233%; PfKRS1: -0.4732%; CoaBC: 0.1255%; ClpP1P2: -17.08%; TcHisRS: -3.415%
* CCC(=O)N(c1ccc(C(=O)OC)cc1C)C(C)C | MtTrpRS: -1.125%; PfKRS1: 4.942%; CoaBC: 2.93%; ClpP1P2: 0.9413%; TcHisRS: 0.5525%
* CN(C)C(=O)N1CCCn2nc(CNC(=O)CCc3cccs3)cc2C1 | MtTrpRS: -1.365%; PfKRS1: 2.646%; CoaBC: 2.773%; ClpP1P2: -6.979%; TcHisRS: 0.9901%
* CCCC(=O)N1CCc2nc3cc(OC)c(OC)cc3c(=O)n2CC1 | PfKRS1: 2.903%; CoaBC: 1.699%; ClpP1P2: -13.61%; TcHisRS: 8.791%
* Cc1nc(CN2CCCC(NCc3cnc(C(C)(C)C)s3)C2)no1 (stereo not given) | MtTrpRS: 0.05903%; PfKRS1: -0.7118%; CoaBC: 6.888%; ClpP1P2: 9.414%; TcHisRS: 6.433%
* Cn1ccnc1-c1cn(Cc2cn3c(n2)SCC3)nn1 | MtTrpRS: 0.571%; PfKRS1: 6.059%; CoaBC: 22.15% and 8.763%; ClpP1P2: -10.52%; TcHisRS: 12.37%
* CC(C)c1ccc(O)c(C(=O)NCc2nncn2C)c1 | MtTrpRS: -0.5387%; PfKRS1: 5.28%; CoaBC: -1.818%; ClpP1P2: -10.26%; TcHisRS: 8.163%
* O=C(COCc1ccccc1)N1CCC(OCc2cccnc2)CC1 | MtTrpRS: -1.253%; PfKRS1: -2.348%; CoaBC: -7.456%; ClpP1P2: -8.993%; TcHisRS: 7.438%
* CCN(CC)S(=O)(=O)NC1CCN(c2ccc(OC)cc2)CC1 | MtTrpRS: -3.374%; PfKRS1: -1.364%; CoaBC: 3.949%; ClpP1P2: 2.846%; TcHisRS: 6.077%
* CC(NC(=O)CCc1nc(C(C)(C)C)no1)c1nnc2n1CCC2 (stereo not given) | MtTrpRS: -3.254%; PfKRS1: 6.485%; CoaBC: -4.721%; ClpP1P2: 9.276%; TcHisRS: 5.814%
* CCOC(=O)CC1CCCCN1C(=O)c1cc(C)oc1C (stereo not given) | MtTrpRS: -0.09671%; PfKRS1: 1.572%; CoaBC: -4.545%; ClpP1P2: 12.96%; TcHisRS: -0.5435%
* Cc1nc(CNCC2CCCN2c2cccnn2)oc1C (stereo not given) | MtTrpRS: 0.6734%; PfKRS1: 2.239%; CoaBC: 4%; ClpP1P2: -3.458%; TcHisRS: 7.143%
* NC(=O)C1CCN(C(=O)NCc2ccc3c(c2)OCCO3)CC1 | MtTrpRS: 1.589%; PfKRS1: 1.975%; CoaBC: 10.61%; ClpP1P2: 3.904%; TcHisRS: 6.627%
* Cc1cc2c(=O)n3c(nc2s1)CCN(C(=O)c1scnc1C)CC3 | MtTrpRS: 0.08361%; PfKRS1: 2.296%; CoaBC: 1.389%; ClpP1P2: 0.4184%; TcHisRS: 0.5405%
* CCN1CC2(CCNCC2)COc2ccccc2S1(=O)=O | MtTrpRS: -6.231%; PfKRS1: 4.163%; CoaBC: 4.172%; ClpP1P2: 5.586%; TcHisRS: 0.5464%
* Cc1cc(C(F)(F)F)nn1CCCNC(=O)C1CCN(S(C)(=O)=O)CC1 | MtTrpRS: 0.2427%; PfKRS1: 1.633%; CoaBC: -25.26%; ClpP1P2: -1.489%; TcHisRS: -0.5181%

Once more, the final 2:

With CCN1CC2(CCNCC2)COc2ccccc2S1(=O)=O the screen gave MtTrpRS: -6.231%; PfKRS1: 4.163%; CoaBC: 4.172%; ClpP1P2: 5.586%; TcHisRS: 0.5464%.
With Cc1cc(C(F)(F)F)nn1CCCNC(=O)C1CCN(S(C)(=O)=O)CC1 the screen gave MtTrpRS: 0.2427%; PfKRS1: 1.633%; CoaBC: -25.26%; ClpP1P2: -1.489%; TcHisRS: -0.5181%.